{"source": "PubChem BioAssay AID1224826 | NIAID – 2016", "assay": "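Genes that change LPS-induced Tnf promoter activity in mouse macrophages when knocked down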 (primary screen)", "system": "RAW264.7 G9 macrophages from mouse bearing reporters for p65 (GFP) and the Tnf promoter (mCherry)", "reagent": "siRNA pool against mouse genes, 100 nM", "timing": "16 h of LPS stimulation, after 2 days of siRNA transfection", "challenge": "bacterial lipopolysaccharide (Salmonella minnesota R595), 10 ng/ml", "measurement": "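Imaged Tnf reporter mCherry in nuclei, minus background, normalised per plate to the median and expressed as robust z-scores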", "reading the numbers": "Tnf reporter robust z-score: higher = stronger Tnf promoter reporter signal after LPS", "active means": "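a well counts as active at a score of -1.3 or below (Tlr4 knock-down control median) or above 3 (raised signal); controls and wells holding fewer than 50 cells are excluded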", "calls": "active = Tnf reporter clearly lowered or raised; inactive = no clear change in Tnf reporter", "note": "Shown is one part, drawn at random, of about 17,000 reagents tested. About 1,110 of them (6.6%) count as active. 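Active means lowered or raised reporter signal; replicate intensities are raw and not normalised per plate.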 Not all columns of the deposit are shown."}
{"target gene":"Rfesd (Rieske (Fe-S) domain containing)","Tnf reporter robust z-score":-0.09,"fewer than 50 cells in well":"enough cells in well","call":"inactive"}
{"target gene":"Uhrf2 (ubiquitin-like, containing PHD and RING finger domains 2)","Tnf reporter robust z-score":-0.6,"fewer than 50 cells in well":"enough cells in well","call":"inactive"}
{"target gene":"B3gnt2","Tnf reporter robust z-score":-0.21,"fewer than 50 cells in well":"enough cells in well","call":"inactive"}
{"target gene":"Prkag1 (protein kinase, AMP-activated, gamma 1 non-catalytic subunit)","Tnf reporter robust z-score":-0.11,"fewer than 50 cells in well":"enough cells in well","call":"inactive"}

Individual results from the list.
Under “Tnf reporter robust z-score”, Rfesd (Rieske (Fe-S) domain containing) has -0.09
Prkag1 (protein kinase, AMP-activated, gamma 1 non-catalytic subunit), Tnf reporter robust z-score: -0.11

More records follow:
{"target gene":"Zeb1 (zinc finger E-box binding homeobox 1)","Tnf reporter robust z-score":0.31,"fewer than 50 cells in well":"enough cells in well","call":"inactive"}
{"target gene":"Scap (SREBF chaperone)","Tnf reporter robust z-score":-0.71,"fewer than 50 cells in well":"enough cells in well","call":"inactive"}
{"target gene":"Sepsecs","Tnf reporter robust z-score":-1.66,"fewer than 50 cells in well":"enough cells in well","call":"active"}
{"target gene":"Vmn1r76 (vomeronasal 1 receptor 76)","Tnf reporter robust z-score":-0.13,"fewer than 50 cells in well":"enough cells in well","call":"inactive"}
{"target gene":"Nat1 (N-acetyl transferase 1)","Tnf reporter robust z-score":0.84,"fewer than 50 cells in well":"enough cells in well","call":"inactive"}
{"target gene":"Or4c11c (olfactory receptor family 4 subfamily C member 11C)","Tnf reporter robust z-score":2.78,"fewer than 50 cells in well":"enough cells in well","call":"inactive"}
{"target gene":"N4bp1 (NEDD4 binding protein 1)","Tnf reporter robust z-score":-0.06,"fewer than 50 cells in well":"enough cells in well","call":"inactive"}
{"target gene":"Srgn (serglycin)","Tnf reporter robust z-score":-0.22,"fewer than 50 cells in well":"enough cells in well","call":"inactive"}
{"target gene":"Tas2r126 (taste receptor, type 2, member 126)","Tnf reporter robust z-score":1.6,"fewer than 50 cells in well":"enough cells in well","call":"inactive"}
{"target gene":"Prl3d2 (prolactin family 3, subfamily d, member 2)","Tnf reporter robust z-score":-0.76,"fewer than 50 cells in well":"enough cells in well","call":"inactive"}
